Structures can show the parent of a compound that is named as a salt. The list shows a part of the results. Single values are uncertain here, since repeats match poorly.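 The cells were human embryonic kidney cells carrying a Renilla luciferase gene, driven by the HSV-TK promoter, on a plasmid put in briefly by transfection. This is the first-round screen of about ten thousand compounds, looking for ones that raise reporter output.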

This assay relates to HEK 293FT. Kind of assay: log relative Renilla luciferase luminescence (reporter expression vs reference, reference not stated) (log (base not stated)); higher = higher recombinant reporter expression. To be noted: 10 µM; time after transfection 48 h.
As for `CCCCN1CCCCC1C(=O)Nc1c(C)cccc1C` (centres undefined) [Bupivacaine hydrochloride], the log is 0.0303.

Take `CCOC(=O)NNc1nncc2ccccc12` [Todralazine hydrochloride]: the log was -0.58.

Turning to `CCN(CCO)CCCC(C)Nc1ccnc2cc(Cl)ccc12` (centres undefined) [Hydroxychloroquine sulfate], the log was -0.375.

Regarding `COc1ccc(CC2c3cc(OC)c(OC)cc3CC[N+]2(C)CCC(=O)OCCCCCOC(=O)CC[N+]2(C)CCc3cc(OC)c(OC)cc3C2Cc2ccc(OC)c(OC)c2)cc1OC` (centres undefined) [Atracurium besylate], the log was -0.063.

In the case of `CC(=O)[C@H]1CC[C@H]2[C@@H]3CC=C4C[C@@H](O)CC[C@]4(C)[C@H]3CC[C@]12C` [Pregnenolone], the log was found to be 0.0914.

As for `CN(C)CCCN1c2ccccc2Sc2ccc(Cl)cc21` [Chlorpromazine hydrochloride], the log worked out at 0.0324.

On to `CCOc1ccccc1OC(c1ccccc1)C1CNCCO1` (centres undefined) [Reboxetine mesylate], for which the log amounted to 0.0079.

For `Nc1ccc(S(=O)(=O)Nc2ccccn2)cc1` [Sulfapyridine], the log is -0.0623.

As for `Nc1ccn([C@@H]2O[C@H](CO)[C@@H](O)[C@@H]2O)c(=O)n1` [Cytarabine], the log is -0.399.

Turning to `CN(C)C(=N)NC(=N)N` [Metformin hydrochloride], the log is 0.0444.

For the compound `NCCCCCC(=O)O` [Aminocaproic acid], the log turned out to be 0.0695.

Regarding `CNCCc1ccccn1` [Betahistine mesylate], the log was 0.0842.

Regarding `CC=CC(=O)N(CC)c1ccccc1C` [Crotamiton], the log is -0.0456.

Regarding `Nc1nc2c(ncn2COC(CO)CO)c(=O)[nH]1` [Ganciclovir], the log was -0.156.

With `Clc1cccc(Cl)c1NC1=NCCN1` [Clonidine hydrochloride], the log is 0.109.

For `CO[C@H]1/C=C/O[C@@]2(C)Oc3c(C)c(O)c4c(O)c(c5c(nc6cc(C)ccn65)c4c3C2=O)NC(=O)/C(C)=C\C=C\[C@H](C)[C@H](O)[C@@H](C)[C@@H](O)[C@@H](C)[C@H](OC(C)=O)[C@@H]1C` [Rifaximin], the log was -1.34.

`CCN(CC)C(C)CN1c2ccccc2Sc2ccccc21` (centres undefined) [Ethopropazine hydrochloride]: the log was found to be 0.1.

Regarding `CCCNC(=O)NS(=O)(=O)c1ccc(Cl)cc1` [Chlorpropamide], the log is -0.137.

Take `CC(=O)O[C@]1(C(C)=O)CC[C@H]2[C@@H]3C=C(Cl)C4=CC(=O)CC[C@]4(C)[C@H]3CC[C@@]21C` [Chlormadinone acetate]: the log is -0.00154.

Consider `CN(C)CCOC(c1ccccc1)c1ccccc1.Cn1c(=O)c2[nH]c(Cl)nc2n(C)c1=O` [Dimenhydrinate], for which the log was determined as 0.145.

As for `O=C1NCC2(CCN(CCc3ccccc3)CC2)O1` [Fenspiride hydrochloride], the log amounted to 0.0683.

As for `Clc1ccc2c(c1)CCc1cccnc1C2=C1CCNCC1` [Desloratadine], the log is -0.0173.

For the compound `CCCOc1ccc2[nH]c(NC(=O)OC)nc2c1` [Oxibendazol], the log was -0.153.

On to `O=C(c1ccc(F)cc1)C1CCN(CCn2c(=O)[nH]c3ccccc3c2=O)CC1` [Ketanserin tartrate hydrate], for which the log came to 0.0285.

With `CCN(CC)C(=O)c1ccc(O)c(OC)c1` [Ethamivan], the log was -0.0265.

Consider `c1ccc(-c2ccc(C(c3ccccc3)n3ccnc3)cc2)cc1` (centres undefined) [Bifonazole], for which the log was -0.415.

For `Oc1c(Cl)cc(Cl)c2cccnc12` [Chloroxine], the log worked out at 0.0175.

Turning to `CN(C)CCC(c1ccc(Br)cc1)c1ccccn1` (centres undefined) [Brompheniramine maleate], the log worked out at 0.000654.

For the compound `CC(=O)OC[C@H]1O[C@@H]([S-])[C@H](OC(C)=O)[C@@H](OC(C)=O)[C@@H]1OC(C)=O.CCP(CC)CC.[Au+]` [Auranofin], the log was -1.4.

Take `CCC1(c2ccccc2)C(=O)NCNC1=O` [Primidone]: the log turned out to be 0.0842.

As for `Nc1ncnc2c1ncn2[C@@H]1O[C@H](CO)[C@@H](O)[C@@H]1O` [Vidarabine], the log was -0.0706.

For the compound `C[C@@](Cc1ccc(O)c(O)c1)(NN)C(=O)O` [Carbidopa], the log was -0.0258.

Consider `CCOc1nc2cccc(C(=O)O)c2n1Cc1ccc(-c2ccccc2-c2nnn[nH]2)cc1` [Candesartan], for which the log turned out to be 0.0115.

With `Cn1c(=O)c2c(ncn2CC2OCCO2)n(C)c1=O` [Doxofylline], the log was determined as 0.0878.

Regarding `CN1CCN(CC(=O)N2c3ccccc3C(=O)Nc3cccnc32)CC1` [Pirenzepine dihydrochloride], the log was 0.0753.

As to `COC(=O)Nc1nc2cc(Sc3ccccc3)ccc2[nH]1` [Fenbendazole], the log was 0.113.

For the compound `CC(=O)N(CC(O)CO)c1c(I)c(C(=O)NCC(O)CO)c(I)c(C(=O)NCC(O)CO)c1I` (centres undefined) [Iohexol], the log is -0.00821.

Regarding `CN(CCCCCCCCCCN(C)C(=O)Oc1cccc([N+](C)(C)C)c1)C(=O)Oc1cccc([N+](C)(C)C)c1` [Demecarium bromide], the log was found to be 0.0511.

As to `CC(CNC1CCCCC1)OC(=O)c1ccccc1` (centres undefined) [Hexylcaine hydrochloride], the log was -0.0934.

`Nc1ccc(S(=O)(=O)Nc2nccs2)cc1` [Sulfathiazole]: the log is -0.0105.

As to `Cc1ccc(-c2cc(C(F)(F)F)nn2-c2ccc(S(N)(=O)=O)cc2)cc1` [Celecoxib], the log was -0.995.

As for `CC[C@H]1OC(=O)[C@H](C)[C@@H](O[C@H]2C[C@@](C)(OC)[C@@H](O)[C@H](C)O2)[C@H](C)[C@@H](O[C@@H]2O[C@H](C)C[C@H](N(C)C)[C@H]2O)[C@](C)(O)C[C@@H](C)CN(C)[C@H](C)[C@@H](O)[C@]1(C)O` [Azithromycin], the log was found to be 0.131.

As for `C[C@@H]1CCC[C@H](C)N1NC(=O)c1ccc(Cl)c(S(N)(=O)=O)c1` [Clopamide], the log was found to be 0.0849.

`CN[C@H]1CC[C@@H](c2ccc(Cl)c(Cl)c2)c2ccccc21` [Sertraline]: the log is -0.0605.

In the case of `CCN(CC)CCNC(=O)c1ccc(N)cc1` [Procainamide hydrochloride], the log was -0.0103.

As for `CC(=O)Nc1c(I)c(C(=O)N[C@H]2C(O)O[C@H](CO)[C@@H](O)[C@@H]2O)c(I)c(N(C)C(C)=O)c1I` (some centres undefined) [Metrizamide], the log is -0.0173.

Consider `CCOC1O[C@H]([C@@H](COCc2ccccc2)OCc2ccccc2)[C@H](OCc2ccccc2)[C@H]1O` (some centres undefined) [Tribenoside], for which the log was -0.819.

Consider `CNCC(O)c1ccc(O)c(O)c1` (centres undefined) [Racepinephrine HCl], for which the log worked out at 0.251.

As for `Cc1cc2cc3c(C)cc(=O)oc3c(C)c2o1` [Trioxsalen], the log was -0.00375.

Source of the values: the supplement of paper PMC7024190.
